Results reported in patent publication US20240043528A1, “NANOBODY-OGA FUSIONS AND USES THEREOF” (President and Fellows of Harvard College, priority 2020, published 2024).

Test system: GFP-Sp1
Assay: Immunofluorescence imaging of subcellular localization of GFP-Sp1
Format: cell-based, human
Details: confocal imaging, HEK 293T cells

B1: fl-OGA: Full length OGA with a myc tag (SEQ ID NO: 1) (protein)
chain: MASMQKLISEEDLLMAMEARIRSTVQKESQATLEERESELSSNPAASAGASLEPPAAPAPGEDNPAGAGGAAVAGAAGGARRFLCGVVEGFYGRPWVMEQRKELFRRLQKWELNTYLYAPKDDYKHRMFWREMYSVEEAEQLMTLISAAREYEIEFIYAISPGLDITFSNPKEVSTLKRKLDQVSQFGCRSFALLFDDIDHNMCAADKEVFSSFAHAQVSITNEIYQYLGEPETFLFCPTEYCGTFCYPNVSQSPYLRTVGEKLLPGIEVLWTGPKVVSKEIPVESIEEVSKIIKRAPVIWDNIHANDYDQKRLFLGPYKGRSTELIPRLKGVLTNPNCEFEANYVAIHTLATWYKSNMNGVRKDVVMTDSEDSTVSIQIKLENEGSDEDIETDVLYSPQMALKLALTEWLQEFGVPHQYSSRQVAHSGAKASVVDGTPLVAAPSLNATTVVTTVYQEPIMSQGAALSGEPTTLTKEEEKKQPDEEPMDMVVEKQEETDHKNDNQILSEIVEAKMAEELKPMDTDKESIAESKSPEMSMQEDCISDIAPMQTDEQTNKEQFVPGPNEKPLYTAEPVTLEDLQLLADLFYLPYEHGPKGAQMLREFQWLRANSSVVSVNCKGKDSEKIEEWRSRAAKFEEMCGLVMGMFTRLSNCANRTILYDMYSYVWDIKSIMSMVKSFVQWLGCRSHSSAQFLIGDQEPWAFRGGLAGEFQRLLPIDGANDLFFQPPPLTPTSKVYTIRPYFPKDEASVYKICREMYDDGVGLPFQSQPDLIGDKLVGGLLSLSLDYCFVLEDEDGICGYALGTVDVTPFIKKCKISWIPFMQEKYTKPNGDKELSEAEKIMLSFHEEQEVLPETFLANFPSLIKMDIHKKVTDPSVAKSMMACLLSSLKANGSRGAFCEVRPDDKRILEFYSKLGCFEIAKMEGFPKDVVILGRSL
modifications: myc tag
- subcellular localization of target protein GFP-Sp1: does not change nuclear localization of GFP-Sp1
